The results in this text go back to publication PMC5339843.

Protein sequences, listed by entry. Tags and fused reporters are not part of them.
UniProt Q08857: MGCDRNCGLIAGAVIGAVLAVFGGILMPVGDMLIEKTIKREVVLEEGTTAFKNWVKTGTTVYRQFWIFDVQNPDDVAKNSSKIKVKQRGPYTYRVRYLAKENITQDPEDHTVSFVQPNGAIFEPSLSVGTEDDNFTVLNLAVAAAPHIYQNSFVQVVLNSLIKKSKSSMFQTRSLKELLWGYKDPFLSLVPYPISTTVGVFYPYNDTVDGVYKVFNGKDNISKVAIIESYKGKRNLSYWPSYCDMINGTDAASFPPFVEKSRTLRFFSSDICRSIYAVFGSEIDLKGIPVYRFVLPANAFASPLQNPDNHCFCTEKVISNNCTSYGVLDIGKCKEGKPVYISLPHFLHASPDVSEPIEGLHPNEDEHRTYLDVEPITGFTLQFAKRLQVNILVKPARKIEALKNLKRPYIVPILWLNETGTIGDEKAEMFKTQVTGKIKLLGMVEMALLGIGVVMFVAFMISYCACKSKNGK

Results are given in words; binding and its absence hold for the method and conditions named. In cells and extracts the contact can be indirect. Some binding calls cover weakened binding; strength is not graded here. For part of these data: Where a sequence is shown, tags or fusion partners need not be part of it.

In test [1] the target is T1, Recombined murine CD146-His protein (mouse) (UniProt Q8R2Y2).
T1 sequence: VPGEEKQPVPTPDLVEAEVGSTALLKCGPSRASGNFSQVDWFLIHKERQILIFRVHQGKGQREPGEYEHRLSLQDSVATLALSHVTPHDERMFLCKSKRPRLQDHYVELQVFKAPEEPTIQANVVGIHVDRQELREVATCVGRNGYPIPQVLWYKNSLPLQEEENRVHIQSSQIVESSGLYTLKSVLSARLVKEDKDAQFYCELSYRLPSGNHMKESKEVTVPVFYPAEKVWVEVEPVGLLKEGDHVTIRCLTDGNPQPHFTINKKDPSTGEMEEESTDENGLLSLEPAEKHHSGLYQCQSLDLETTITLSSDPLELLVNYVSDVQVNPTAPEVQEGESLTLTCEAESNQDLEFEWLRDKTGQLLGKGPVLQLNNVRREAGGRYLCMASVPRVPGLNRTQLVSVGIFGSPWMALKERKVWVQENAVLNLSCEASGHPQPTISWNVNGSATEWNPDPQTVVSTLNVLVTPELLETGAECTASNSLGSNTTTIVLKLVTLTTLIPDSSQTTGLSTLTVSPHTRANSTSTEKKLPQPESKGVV
Put plainly: pull-down; His-CD146-ECD or His-CD146^D4-5 incubated with BMDM cell lysates in the presence of mIgG or AA98 (50 ug/ml); bound CD36 detected by immunoblot with anti-CD36; only the target purified. For orientation: A western blot detects proteins with antibodies after separation by electrophoresis.

Test [2] concerns the target T2, CD146 (endogenous, in bone marrow-derived macrophages) (mouse (endogenous in BMDMs)) (UniProt Q8R2Y2).
T2 sequence: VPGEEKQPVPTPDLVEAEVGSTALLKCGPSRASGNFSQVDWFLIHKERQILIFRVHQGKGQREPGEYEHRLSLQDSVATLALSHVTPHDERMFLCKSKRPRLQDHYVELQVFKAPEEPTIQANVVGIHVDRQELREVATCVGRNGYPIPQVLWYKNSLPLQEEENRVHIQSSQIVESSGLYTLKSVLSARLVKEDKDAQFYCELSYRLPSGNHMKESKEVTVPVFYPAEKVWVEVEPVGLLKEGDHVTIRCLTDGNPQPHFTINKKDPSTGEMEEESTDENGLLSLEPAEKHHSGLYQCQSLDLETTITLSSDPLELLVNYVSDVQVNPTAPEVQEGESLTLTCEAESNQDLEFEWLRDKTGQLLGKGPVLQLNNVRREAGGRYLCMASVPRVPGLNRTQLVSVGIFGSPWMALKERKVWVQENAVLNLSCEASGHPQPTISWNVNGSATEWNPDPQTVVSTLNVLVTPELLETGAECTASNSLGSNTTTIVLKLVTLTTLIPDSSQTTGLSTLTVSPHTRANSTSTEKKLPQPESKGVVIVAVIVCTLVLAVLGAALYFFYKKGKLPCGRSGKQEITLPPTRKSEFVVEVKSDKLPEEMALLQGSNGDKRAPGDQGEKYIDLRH
Put plainly: co-IP; endogenous proteins in BMDM lysates; IP with anti-CD146 mAb or anti-CD36 and protein G-agarose, immunoblot; buffer 150 mM NaCl, 50 mM Tris pH 8.0, 0.1% SDS, 0.5% deoxycholate, 1% NP-40; also after oxLDL (50 ug/ml) for the indicated times and with anti-CD146 AA98.

Test [3] concerns the target CD36 (endogenous, in bone marrow-derived macrophages) (mouse (endogenous in BMDMs)) (UniProt Q08857). The test is described as above.

In the case of “CD36 (endogenous, in bone marrow-derived macrophages) (from UniProt Q08857 1-472) (receptor)”, the binding result in test [1] and in test [2] was “binds” each time.

B1: CD146 (endogenous, in bone marrow-derived macrophages) (receptor, UniProt Q8R2Y2 24-648)
chain: T2 sequence
Take B1: the binding result in test [3] is “binds”.
